Where a name gives a salt, the structure may show the parent alone. This is one part of the list. Hit calls seldom repeat between salt and free forms of one compound.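 Kinases were expressed as nanoluciferase fusions in K562 cells and luminescence was read every 4 h between 2 and 18 h as percent of control, DMSO set to 100% and a positive control to 0%. A time point counts as decreased when the signal drops significantly (2 sigma). The hit call is the authors' own, does not follow from the count of time points alone, and its rule is not shown.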
Molecular target: PDK1 (UniProt Q15118)
Assay: kinase-Nluc reporter destabilization hit call (1 = scored as downregulated) (binary); higher = compound decreases kinase abundance
Details: 10 µM; K562; 2-18 h

By UniProt entry, the sequences of proteins in these tests, tags left out. Where a name states a change or a piece, a line headed by the entry shows the natural chain unless it says otherwise.
UniProt Q15118, whole entry, looked up: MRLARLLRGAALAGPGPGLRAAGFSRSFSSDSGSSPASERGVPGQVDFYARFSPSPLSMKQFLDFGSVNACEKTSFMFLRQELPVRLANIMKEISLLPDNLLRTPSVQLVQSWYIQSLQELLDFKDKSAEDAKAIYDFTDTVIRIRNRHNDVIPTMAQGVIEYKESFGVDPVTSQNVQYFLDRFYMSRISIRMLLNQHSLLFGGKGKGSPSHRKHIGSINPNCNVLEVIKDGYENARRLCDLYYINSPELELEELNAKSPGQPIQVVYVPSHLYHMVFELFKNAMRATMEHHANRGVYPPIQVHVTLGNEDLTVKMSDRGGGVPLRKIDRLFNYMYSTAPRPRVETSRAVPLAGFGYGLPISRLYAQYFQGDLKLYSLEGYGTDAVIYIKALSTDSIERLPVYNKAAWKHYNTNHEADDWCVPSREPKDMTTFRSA
UniProt O15530: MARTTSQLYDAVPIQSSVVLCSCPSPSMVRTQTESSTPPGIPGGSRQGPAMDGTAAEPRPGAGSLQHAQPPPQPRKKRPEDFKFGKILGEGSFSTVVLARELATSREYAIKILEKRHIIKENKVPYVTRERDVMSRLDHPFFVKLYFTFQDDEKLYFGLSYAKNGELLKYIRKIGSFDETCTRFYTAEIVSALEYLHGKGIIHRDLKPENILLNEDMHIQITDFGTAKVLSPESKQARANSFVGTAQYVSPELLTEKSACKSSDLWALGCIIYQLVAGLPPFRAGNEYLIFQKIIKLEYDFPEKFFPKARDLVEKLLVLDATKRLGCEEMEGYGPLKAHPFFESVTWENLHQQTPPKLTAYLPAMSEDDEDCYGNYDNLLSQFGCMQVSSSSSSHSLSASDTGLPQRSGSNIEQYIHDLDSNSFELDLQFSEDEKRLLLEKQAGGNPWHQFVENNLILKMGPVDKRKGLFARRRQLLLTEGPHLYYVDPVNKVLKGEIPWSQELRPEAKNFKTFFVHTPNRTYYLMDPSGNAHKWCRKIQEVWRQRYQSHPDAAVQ

kinase-Nluc reporter destabilization hit call, inactive:
COc1cc2nccc(Oc3ccc(NC(=O)C4(C(=O)Nc5ccc(F)cc5)CC4)cc3)c2cc1OC [Cabozantinib (S-malate)] 0, Cn1cc(-c2cnc3ccc4ccc(CS(=O)(=O)NCc5ccccn5)cc4c(=O)c3c2)cn1 [MK-8033 (hydrochloride)] 0, CNC(=O)c1ccc(Nc2ncc(C(F)(F)F)c(NCc3nccnc3N(C)S(C)(=O)=O)n2)cc1 [Defactinib] 0, N#CCNC(=O)c1ccc(-c2ccnc(Nc3ccc(N4CCOCC4)cc3)n2)cc1 [Momelotinib] 0, CC(=O)c1c(C)c2cnc(Nc3ccc(N4CCNCC4)cn3)nc2n(C2CCCC2)c1=O [Palbociclib (isethionate)] 0, Nc1cncc(-c2cn3ccnc3c(Nc3ccc(N4CCN(C5COC5)CC4)cc3)n2)n1 [Lanraplenib (succinate)] 0, C#Cc1cccc(Nc2ncnc3cc4c(cc23)OCCOCCOCCO4)c1 [Icotinib] 0, O=C(O)c1ccc2c(c1)nc(Nc1cccc(Cl)c1)c1ccncc12 [Silmitasertib (sodium salt)] 0, CC(C)Nc1cc(-c2c[nH]c(C(=O)N[C@H](CO)c3cccc(Cl)c3)c2)c(Cl)cn1 [Ulixertinib (hydrochloride)] 0, C=CC(=O)N1CCN(c2ncnc3c(F)c(-c4c(O)cccc4F)c(Cl)cc23)CC1 0, CN(C)C(=O)c1cc2cnc(Nc3ccc(N4CCNCC4)cn3)nc2n1C1CCCC1 [Ribociclib] 0, COc1cc2c(-c3cnn4cc(N5CCC(N6CCN(C)CC6)CC5)cnc34)ccnc2cc1F [ALK2-IN-4 (succinate)] 0, CCN(CC)Cc1ccc(OC)c(-c2cc3c(-c4ccc(C(=O)O)c(C(C)C)c4)ccnc3[nH]2)c1 0, O=C(c1nn(-c2ccc(CN3CCOCC3)cc2)c2c1CS(=O)(=O)c1c(F)cccc1-2)N1CCOCC1 0, CC(C)(C)n1nc(-c2cccc3ccccc23)c2c(N)ncnc21 [1-Naphthyl PP1 (hydrochloride)] 0, CCN(CC)CC(=O)Nc1c(C)cccc1C [Lidocaine (hydrochloride)] 0, Cn1ncc(Cl)c1-c1cc(C(=O)N[C@H](CN)Cc2cccc(F)c2)sc1Cl [Afuresertib (hydrochloride)] 0, COc1cc2c(cc1OC)-c1c(C)c3ccc(OC)c(OC)c3c[n+]1CC2 [Dehydrocorydaline] 0, C[C@H](CCC(=O)NCCS(=O)(=O)O)[C@H]1CC[C@H]2[C@@H]3[C@@H](O)C[C@@H]4C[C@H](O)CC[C@]4(C)[C@H]3CC[C@]12C [Tauroursodeoxycholate (dihydrate)] 0, OCCn1cc(-c2cnc3nnn(Cc4ccc5ncccc5c4)c3n2)cn1 0, C[S+]([O-])c1ccc(-c2nc(-c3ccc(F)cc3)c(-c3ccncc3)[nH]2)cc1 (configuration not stated) 0, CC(C)(C)n1nc(-c2cccc3ccccc23)c2c(N)ncnc21 [1-Naphthyl PP1] 0

Molecular target: PDPK1 (UniProt O15530)
Assay: as above
Details: 2.5 µM; K562; 2-18 h

kinase-Nluc reporter destabilization hit call, inactive:
CN1CCCN(C(=O)c2cccc(-c3ccc(/C=C4/C(=O)Nc5ccc(Cl)cc54)o3)c2)CC1 [CX-6258 (hydrochloride)] 0, Clc1ccc(C2(c3ccc(-c4cn[nH]c4)cc3)CCNCC2)cc1 [AT7867 (dihydrochloride)] 0, CC(C)Oc1ccc(-c2nn([C@@H](C)c3oc4ccc(F)cc4c(=O)c3-c3cccc(F)c3)c3ncnc(N)c23)cc1F [Umbralisib] 0, C=CC(=O)Nc1cc(Nc2nccc(-c3cn(C)c4ccccc34)n2)c(OC)cc1N(C)CCN(C)C [Osimertinib] 0, COc1cc2c(Oc3ccc4[nH]c(C)cc4c3F)ncnc2cc1OCCCN1CCCC1 [Cediranib (maleate)] 0, CC(C)Oc1ccc(-c2nn([C@@H](C)c3oc4ccc(F)cc4c(=O)c3-c3cccc(F)c3)c3ncnc(N)c23)cc1F [Umbralisib (hydrochloride)] 0, COc1ccc(S(=O)(=O)N(CCO)c2ccccc2CN(C)C/C=C/c2ccc(Cl)cc2)cc1 [KN-93 (hydrochloride)] 0, C=CC(=O)N1CCN(c2ncnc3c(F)c(-c4c(O)cccc4F)c(Cl)cc23)CC1 0, COc1ccc(S(=O)(=O)Nc2ccccc2CN(C)C/C=C/c2ccc(Cl)cc2)cc1 [KN-92 (hydrochloride)] 0, CCN(CC)Cc1ccc(OC)c(-c2cc3c(-c4ccc(C(=O)O)c(C(C)C)c4)ccnc3[nH]2)c1 0, CN(C)C/C=C/C(=O)Nc1cc2c(Nc3ccc(F)c(Cl)c3)ncnc2cc1O[C@H]1CCOC1 [Afatinib (dimaleate)] 0, Oc1cccc(-c2nc(N3CCOCC3)c3oc4ncccc4c3n2)c1 [PI-103 (Hydrochloride)] 0, c1cc(-c2cnn3cc(-c4ccc(OCCN5CCCCC5)cc4)cnc23)ccn1 [Dorsomorphin] 0, COc1ccc(S(=O)(=O)N(CCO)c2ccccc2CN(C)C/C=C/c2ccc(Cl)cc2)cc1 [KN-93 (phosphate)] 0, Nc1ncnc2c1c(-c1ccc(Oc3ccccc3)cc1)nn2[C@@H]1CCCNC1 [IBT6A (hydrochloride)] 0

Source: the supplement of paper PMC12823440, “Inhibitors supercharge kinase turnover through native proteolytic circuits” (Nature, 2025)
